Results reported in PubChem BioAssay AID540275 (National Center for Advancing Translational Sciences (NCATS), 2011).
Out of some 320,000 compounds screened, about 620 (0.19%) were called active. The inconclusive results got no clear call from the source; some entries with a clear call stand among them for comparison. Rule as the data show it: active = activation above about 80%; inconclusive = between about 30% and that limit; inactive = weaker than that.

Sequences of proteins named here, by UniProt entry; tags and fusion partners are left off.
UniProt Q8NER1, whole entry, looked up: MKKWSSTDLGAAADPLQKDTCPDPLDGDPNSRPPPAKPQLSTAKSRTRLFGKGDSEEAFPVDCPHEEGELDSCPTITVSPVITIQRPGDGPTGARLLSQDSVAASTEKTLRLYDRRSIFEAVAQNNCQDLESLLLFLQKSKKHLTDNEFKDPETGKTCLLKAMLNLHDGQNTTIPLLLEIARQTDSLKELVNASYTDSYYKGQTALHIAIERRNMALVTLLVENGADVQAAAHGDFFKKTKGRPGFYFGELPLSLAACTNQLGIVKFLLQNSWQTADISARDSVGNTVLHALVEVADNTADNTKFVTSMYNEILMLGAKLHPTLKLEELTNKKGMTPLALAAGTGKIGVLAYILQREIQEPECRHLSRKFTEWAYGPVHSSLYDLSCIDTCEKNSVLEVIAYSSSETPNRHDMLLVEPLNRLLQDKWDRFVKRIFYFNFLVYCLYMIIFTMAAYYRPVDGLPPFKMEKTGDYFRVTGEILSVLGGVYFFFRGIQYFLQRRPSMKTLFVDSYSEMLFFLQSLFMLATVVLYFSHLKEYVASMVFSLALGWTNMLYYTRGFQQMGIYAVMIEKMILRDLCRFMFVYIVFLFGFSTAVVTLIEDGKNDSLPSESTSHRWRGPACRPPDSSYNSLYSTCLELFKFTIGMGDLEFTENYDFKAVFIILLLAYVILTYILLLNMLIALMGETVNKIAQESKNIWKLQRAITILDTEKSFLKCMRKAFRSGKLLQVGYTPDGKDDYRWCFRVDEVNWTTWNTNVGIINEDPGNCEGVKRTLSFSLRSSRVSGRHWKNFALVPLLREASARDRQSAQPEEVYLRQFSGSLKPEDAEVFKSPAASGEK

target: Transient receptor potential cation channel subfamily V member 1 (Homo sapiens) (UniProt Q8NER1); assay: HTS Assay for Compounds that Act as Agonists of the Vanilloid Receptor 1; conditions: TRPV1-expressing cells, Fluo-8 calcium influx, agonist mode; at 8.33 µM, hits give high values; also: 0% is about no effect
In short: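 Cells expressing TRPV1 were dye-loaded with Fluo-8 and read kinetically: 10 s baseline, 3 min after compound (agonist portion), then 2 min after EC20 capsaicin (allosteric enhancer portion). Calcium-bound dye fluorescence at 480/520 nm.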

Row | Structure (SMILES) | activation
1 | CCCCc1ccc(NC(=S)NCc2cccs2)cc1 | inconclusive: 50.3%
2 | Cc1cccc(C(=O)N/N=C/c2cc(Br)c(Br)o2)c1 | inconclusive: 47%
3 | COc1ccc(C[C@H]2CN3C(=NC[C@@H]3Cc3ccccc3)N2C[C@H](C)NC(=O)CCC2CCCCC2)cc1 | inactive: 9.87%
4 | CCOC(=O)Cc1ccc(NC(=O)c2ccc(C(C)(C)C)cc2)cc1 | inconclusive: 72%
5 | CCOCCCNC(=O)C1(O)c2ccccc2NC(=O)N1c1ccc(Cl)cc1 (stereo not given) | inactive: 5.67%
6 | CCOC(=O)Oc1ccc2c(=O)c(Oc3cccc(C)c3)coc2c1 | inconclusive: 39.5%
7 | COc1ccc(N/C=C2\CCc3ccccc3C2=O)cc1 | inactive: 24.8%
8 | Cc1ccc(NC(=O)C2CCC2)cc1S(=O)(=O)N1CCCCCC1 | inconclusive: 38.7%
9 | Cc1ccc(/C=C/C(=O)c2ccccc2)cc1 | inconclusive: 66.4%
10 | Cc1coc2c(C)c3oc(=O)c(CC(=O)N[C@@H](CC(C)C)C(=O)O)c(C)c3cc12 | inconclusive: 30.9%
11 | CCC1CCCCN1c1nc(-c2ccncc2)nc2ccccc12 (stereo not given) | inconclusive: 34%
12 | COc1ccccc1NC(=O)CNC(c1ccccc1)c1ccccc1 | inconclusive: 39.5%
13 | O=C(CSCc1ccc(F)cc1)Nc1ccccc1 | inconclusive: 73.9%
14 | CCCCC(=O)Nc1cccc(NC(=O)c2cccc(Br)c2)c1 | inactive: 3.07%
15 | Cc1ccc(OCCC(=O)N2CCN(c3ccc(O)cc3)CC2)cc1 | inconclusive: 33.2%
16 | CCc1ccc(Nc2cc(C)nc3nc(C)nn23)cc1 | inconclusive: 38.5%
17 | COc1cc2c(cc1OC)C(COc1ccccc1OC)N(C(C)=O)CC2 (stereo not given) | inactive: 1.14%
18 | O=C(Nc1ccc2c(c1)OCCO2)c1ccc(Cl)c(Cl)c1 | inconclusive: 46%
19 | CCCCNC(=O)[C@@](CC)(ONc1ccccc1C(F)(F)F)c1cccc2ccccc12 | inconclusive: 54.4%
20 | c1ccc(-c2noc(-c3ccc4ccccc4c3)n2)nc1 | inconclusive: 45.8%
21 | Cc1cc(NC(=O)c2ccc(C)s2)n(-c2nc3ccccc3[nH]2)n1 | inactive: -12.5%
22 | Cc1occc1C(=O)Nc1cccc2ccccc12 | inconclusive: 47.2%
23 | C/C(=N\NC(=O)COc1ccccc1[N+](=O)[O-])c1cccc(NC(=O)c2ccncc2)c1 | inactive: -1.13%

Compounds above that have a furan ring, fused or not:
Row | Structure (SMILES) | activation
2 | Cc1cccc(C(=O)N/N=C/c2cc(Br)c(Br)o2)c1 | inconclusive: 47%
10 | Cc1coc2c(C)c3oc(=O)c(CC(=O)N[C@@H](CC(C)C)C(=O)O)c(C)c3cc12 | inconclusive: 30.9%
22 | Cc1occc1C(=O)Nc1cccc2ccccc12 | inconclusive: 47.2%

Remaining list, next part:

Row | Structure (SMILES) | activation
24 | O=c1oc2ccccc2cc1-c1nnc(-c2cccc(Br)c2)o1 | inactive: 0.596%
25 | Cc1ccc(-n2nnc3c(=O)n(CC(=O)c4ccccc4)cnc32)cc1 | inconclusive: 38.1%
26 | O=C(COC(=O)Cc1ccsc1)NCc1ccccc1 | inconclusive: 34.9%
27 | CCCCOC(=O)c1cc(Cl)c(O)c(OC)c1 | inactive: -0.014%
28 | Cc1cc2c(Nc3ccccc3)ncnc2s1 | inconclusive: 64.8%
29 | CC(C)c1onc(C(=O)NCc2ccc(F)cc2)c1[N+](=O)[O-] | inconclusive: 31.3%
30 | Fc1ccc(C2=CC(c3ccc(Br)o3)n3ncnc3N2)cc1 (stereo not given) | inconclusive: 31%
31 | S=C(NCCc1ccccc1)Nc1nccs1 | inconclusive: 44.3%
32 | COc1ccc(CNC(=O)c2cc(-c3ccncc3)nc3c(C)cc(C)cc23)cc1OC | inconclusive: 62.8%
33 | COC(=O)[C@@H]1CCCN1C(=O)CCc1nnc(CCc2c[nH]c3ccccc23)o1 | inconclusive: 47.5%
34 | O=C(CN1C(=O)CC(c2ccco2)Sc2ccccc21)NCc1ccc2c(c1)OCO2 (stereo not given) | inconclusive: 58%
35 | CCCc1ccc(OCCNC(=O)c2ccccc2Br)cc1 | inconclusive: 42.3%
36 | Cc1ccc(NC(=O)COc2cccc3c2OC(C)(C)C3)c(O)c1 | inconclusive: 47.3%
37 | Cc1ccc(C)c(OCc2cc(C(=O)N3CC[C@H](O)C3)no2)c1 | inconclusive: 57.2%
38 | O=C(CN1C(=O)CC(c2ccccc2)S(=O)(=O)c2ccccc21)NC1CCCC1 (stereo not given) | inconclusive: 36.7%
39 | COc1cc(-c2nnn(Cc3ccccc3C)n2)cc(OC)c1OC | inactive: 11.8%
40 | CCCCC(O)(CCCC)C(=O)N/N=C(\C)c1ccc(Cl)cc1 | inconclusive: 37.5%
41 | O=C(Nc1ccccc1)Nc1cc(OCC(F)(F)F)cc(OCC(F)(F)F)c1 | inconclusive: 55.6%
42 | CCCCC1CC1C(=O)Nc1ccc(OC)c(OC)c1 (stereo not given) | inconclusive: 71.9%
43 | CCS(=O)(=O)N1CCN(c2ccc(C(=O)NC34CC5CC(CC(C5)C3)C4)cc2[N+](=O)[O-])CC1 | inactive: 8.78%
44 | O=C(Nc1cccc2ccccc12)N1CC=C(c2ccccc2)CC1 | inconclusive: 54.7%
45 | COC(=O)C(C(=O)OC)c1ncc(C(F)(F)F)cc1Cl | inactive: 2.87%
46 | CCCn1c(SCc2cc(=O)oc3ccc4ccccc4c23)n[nH]c1=O | inconclusive: 67.9%

Row | Structure (SMILES) | activation
47 | CCOc1cc2c(C#N)c(N3CCOCC3)nc(N)c2c(N)n1 | inactive: -0.98%
48 | Clc1ccc(CN2CCCCCC2)cc1 | inactive: -0.511%
49 | CC(C)c1ccc(NC(=S)NCc2cccs2)cc1 | inconclusive: 56.2%
50 | CCOc1ccc(NC(=O)c2csc3c2CCCC3)cc1 | inconclusive: 39.4%
51 | CCCc1cc(=O)n2nc(N3CCC(C(=O)N4CCN(c5cccc(OC)c5)CC4)CC3)sc2n1 | inactive: 1.35%
52 | C=C[C@@H]1c2ccccc2N(S(=O)(=O)c2ccc(C)cc2)[C@H](c2ccccc2)C1(C#N)C#N | inactive: 3.38%
53 | COc1ccc(C2(C(=O)NCCN3CCOCC3)CCOCC2)cc1 | inactive: -1.11%
54 | Cc1cc(C(=O)Nc2ccc3c(c2)OCCO3)ccc1[N+](=O)[O-] | inconclusive: 45.9%
55 | Cc1cc(SCC(=O)OCC(=O)NCc2ccc3c(c2)OCO3)c(C)cc1Br | inconclusive: 32.8%
56 | CCOc1ccccc1N1CCN(Cc2cccc(OC)c2OC)CC1 | inactive: -8.81%
57 | CC/C(=N\NC(=O)CNC(=O)/C=C/c1ccc(OC)cc1)c1ccccc1 | inactive: -1.37%
58 | NC(=O)C1CCN(C(=O)c2ccc3c(=O)n(Cc4ccco4)c(SCC(=O)c4ccc(F)cc4)nc3c2)CC1 | inconclusive: 46.4%
59 | O=C(Nc1ccc2c(c1)OCO2)N1CCN(c2ccc(F)cc2)CC1 | inconclusive: 55.2%
60 | Cc1ccc(-c2cc(C(=O)N3CCCC(C(F)(F)F)C3)c3ccccc3n2)o1 (stereo not given) | inconclusive: 46.2%
61 | CCc1ccc(NC(=O)COc2cccc(-n3cnnn3)c2)cc1 | inconclusive: 64.2%
62 | CCCN(CCC)S(=O)(=O)c1ccc(C(=O)O)cc1 | inactive: -0.735%
63 | COc1cccc(/C=C/C(=O)NCc2cn3cc(Cl)ccc3n2)c1OC | inconclusive: 34.5%
64 | Cc1ccc(C(=O)Nc2ccc3c(c2)OCO3)cc1S(=O)(=O)N1CCCCC1 | inconclusive: 47.4%
65 | COC(=O)c1scc(C)c1NC(=O)c1ccccc1F | inactive: -0.809%
66 | N#Cc1c(-c2ccccc2)nc(SCC(=O)N(c2ccccc2)c2ccccc2)[nH]c1=O | inactive: 3.33%
67 | O=C(Nc1ccc(N2CCCC2)cc1)c1cccc(Cl)c1Cl | active: 81.5%
68 | Cc1cc(C(C)(C)C)oc1C(=O)N(CC(=O)NC1CCCC1)Cc1ccccc1 | inconclusive: 48.3%
69 | COc1ccc(NC(=O)N2CCCC(C(=O)NCCc3ccccc3)C2)cc1 (stereo not given) | inconclusive: 36.9%

Row | Structure (SMILES) | activation
70 | Cc1cc(C(=O)CSc2ncccn2)c(C)n1-c1cccc(F)c1 | inconclusive: 75.2%
71 | Cc1cc(OCC(=O)Nc2ccncc2)cc(C)c1Br | inconclusive: 77.8%
72 | Cc1ccc(S(=O)(=O)N2C=CC(C(F)(F)F)=NCC2)cc1 | inactive: -3.92%
73 | COC(=O)CNC(c1ccccc1)c1cc(C)ccc1NC(=O)c1cccc(Cl)c1 (stereo not given) | inactive: 19.3%
74 | CC(C)NC(=O)CC1(C(=O)NCc2ccc(Cl)cc2)CCCC1 | inactive: 0.711%
75 | CCOc1ccccc1N(CC(=O)NCCSc1ccccn1)S(=O)(=O)c1ccc(C)cc1 | inconclusive: 39%
76 | COc1cccc(-c2ccc3ncnc(NCc4cc(C)cs4)c3c2)c1 | inconclusive: 32.7%
77 | COc1ccc(-n2nc3c(c2NC(=O)c2c(F)cccc2Cl)CS(=O)C3)cc1 (stereo not given) | inactive: 24.1%
78 | COc1ccc(CNC(=O)C2=CC(c3ccc(OC)cc3)=NS(=O)(=O)N2C)cc1 | inactive: 17.8%
79 | COc1cc(CNc2ccc3[nH]c(=O)[nH]c3c2)ccc1OCc1c(F)cccc1Cl | active: 90.2%
80 | CC(=O)N1CCCc2cc(S(=O)(=O)NCCC3=CCCCC3)ccc21 | inactive: 2.66%
81 | CC(=O)Nc1cccc(C(=O)NC2CCCc3c2cnn3-c2cc(C)cc(C)c2)c1 (stereo not given) | inconclusive: 67.6%
82 | Cc1cccc(NC(=O)NC(C)CCc2ccccc2)c1 (stereo not given) | inconclusive: 40.8%
83 | CC(C)n1cc(NC(=O)c2cc(-c3ccccc3)on2)cn1 | inconclusive: 60.1%
84 | Nc1ccc(Oc2ccc3nc(-c4ccccc4)c(-c4ccccc4)nc3c2)cc1 | inactive: 8.86%
85 | NC(=O)COc1ccc(C(=O)/C=C2/C(=O)Nc3ccccc32)cc1 | inactive: -0.859%
86 | CCc1ccc(OCCOC(=O)Nc2ccccc2)cc1 | inconclusive: 51%
87 | COc1ccc(C(=O)/C=C/C(=O)N(Cc2ccc3c(c2)OCO3)C(C(=O)NC2CCCCC2)c2ccncc2)c(O)c1 (stereo not given) | inconclusive: 33.9%
88 | Cc1nc2ccccc2c(=O)n1/N=C/c1ccc(C(C)C)cc1 | inconclusive: 79.7%
89 | C=CCn1cc(C(=O)NCc2ccco2)c(=O)c2cc(S(=O)(=O)N3CCCCCC3)ccc21 | inconclusive: 30.2%
90 | CC(C)(C)c1ccc(C(=O)Oc2ccc3c(c2)OCC3=O)cc1 | inconclusive: 35.1%
